Results are given in words; binding and its absence hold for the method and conditions named. Some binding calls cover weakened binding; strength is not graded here.
Experiments:
Test in all cases: peptide or protein array; HuProt human proteome microarray; 5 ug/5 ml biotin-labelled LUBAC or OTULIN in solution, 1 h at room temperature; Cy5-streptavidin, scanned at 635 nm; BSA as negative control; hits: Z-score >= 3 and I_(Mean_Ratio) >= 1.4; both purified
FUBP1 (human) = FUBP1 (human) (UniProt Q96AE4)
SORD (human) = target: T1, SORD (human) (UniProt Q00796)
T1 sequence: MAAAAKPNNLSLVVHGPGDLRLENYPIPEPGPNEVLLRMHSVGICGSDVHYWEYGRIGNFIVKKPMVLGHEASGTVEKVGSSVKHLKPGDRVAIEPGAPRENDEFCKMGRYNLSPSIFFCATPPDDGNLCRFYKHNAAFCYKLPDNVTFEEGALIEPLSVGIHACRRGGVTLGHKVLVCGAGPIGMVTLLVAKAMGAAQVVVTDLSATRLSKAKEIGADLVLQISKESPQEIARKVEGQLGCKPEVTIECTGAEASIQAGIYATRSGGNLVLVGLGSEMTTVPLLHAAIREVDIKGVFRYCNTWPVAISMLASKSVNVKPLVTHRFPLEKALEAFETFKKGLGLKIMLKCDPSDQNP

Sequences of proteins named here, by UniProt entry; tags and fusion partners are left off.
UniProt Q96AE4: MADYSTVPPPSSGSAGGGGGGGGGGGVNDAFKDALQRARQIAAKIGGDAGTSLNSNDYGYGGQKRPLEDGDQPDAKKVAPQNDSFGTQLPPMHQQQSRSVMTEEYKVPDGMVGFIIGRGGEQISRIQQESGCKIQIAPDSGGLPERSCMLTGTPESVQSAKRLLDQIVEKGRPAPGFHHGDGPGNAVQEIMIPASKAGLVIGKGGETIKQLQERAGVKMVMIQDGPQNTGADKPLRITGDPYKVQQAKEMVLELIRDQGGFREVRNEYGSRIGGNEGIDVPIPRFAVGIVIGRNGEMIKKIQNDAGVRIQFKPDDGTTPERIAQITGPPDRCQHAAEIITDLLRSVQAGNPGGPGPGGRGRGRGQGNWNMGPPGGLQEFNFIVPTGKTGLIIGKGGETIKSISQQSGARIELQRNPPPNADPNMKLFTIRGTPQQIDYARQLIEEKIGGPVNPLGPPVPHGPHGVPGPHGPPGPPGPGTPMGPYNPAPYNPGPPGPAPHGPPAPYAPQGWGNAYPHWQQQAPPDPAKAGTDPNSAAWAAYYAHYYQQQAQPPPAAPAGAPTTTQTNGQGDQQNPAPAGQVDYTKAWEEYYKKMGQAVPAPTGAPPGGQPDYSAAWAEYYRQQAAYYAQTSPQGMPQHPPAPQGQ
UniProt P50552: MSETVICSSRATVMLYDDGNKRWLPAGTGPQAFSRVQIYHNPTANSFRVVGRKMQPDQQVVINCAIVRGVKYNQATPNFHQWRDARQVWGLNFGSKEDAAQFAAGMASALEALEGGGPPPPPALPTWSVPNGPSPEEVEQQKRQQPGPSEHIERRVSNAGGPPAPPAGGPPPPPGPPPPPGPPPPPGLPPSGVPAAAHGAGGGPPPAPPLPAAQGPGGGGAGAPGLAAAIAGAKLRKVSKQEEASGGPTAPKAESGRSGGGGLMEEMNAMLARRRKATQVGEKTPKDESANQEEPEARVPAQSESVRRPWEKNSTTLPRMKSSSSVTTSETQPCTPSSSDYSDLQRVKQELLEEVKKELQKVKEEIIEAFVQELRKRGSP
UniProt Q9Y3Z3: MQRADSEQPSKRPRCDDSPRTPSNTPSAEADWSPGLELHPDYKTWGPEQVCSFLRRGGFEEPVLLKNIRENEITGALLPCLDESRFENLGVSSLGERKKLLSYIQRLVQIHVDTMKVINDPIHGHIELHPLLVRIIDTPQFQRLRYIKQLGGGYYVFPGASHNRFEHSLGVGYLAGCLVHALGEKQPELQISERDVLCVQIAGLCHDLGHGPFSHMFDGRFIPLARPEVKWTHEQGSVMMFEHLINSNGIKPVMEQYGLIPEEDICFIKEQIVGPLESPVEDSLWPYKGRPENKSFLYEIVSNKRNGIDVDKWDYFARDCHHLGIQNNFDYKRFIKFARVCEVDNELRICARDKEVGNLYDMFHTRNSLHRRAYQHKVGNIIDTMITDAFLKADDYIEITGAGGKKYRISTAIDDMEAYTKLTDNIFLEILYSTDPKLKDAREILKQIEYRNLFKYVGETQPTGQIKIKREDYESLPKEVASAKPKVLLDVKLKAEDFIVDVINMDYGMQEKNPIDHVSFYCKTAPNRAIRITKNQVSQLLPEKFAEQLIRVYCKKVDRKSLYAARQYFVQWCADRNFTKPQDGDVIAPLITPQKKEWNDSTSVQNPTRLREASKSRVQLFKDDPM
UniProt P57723: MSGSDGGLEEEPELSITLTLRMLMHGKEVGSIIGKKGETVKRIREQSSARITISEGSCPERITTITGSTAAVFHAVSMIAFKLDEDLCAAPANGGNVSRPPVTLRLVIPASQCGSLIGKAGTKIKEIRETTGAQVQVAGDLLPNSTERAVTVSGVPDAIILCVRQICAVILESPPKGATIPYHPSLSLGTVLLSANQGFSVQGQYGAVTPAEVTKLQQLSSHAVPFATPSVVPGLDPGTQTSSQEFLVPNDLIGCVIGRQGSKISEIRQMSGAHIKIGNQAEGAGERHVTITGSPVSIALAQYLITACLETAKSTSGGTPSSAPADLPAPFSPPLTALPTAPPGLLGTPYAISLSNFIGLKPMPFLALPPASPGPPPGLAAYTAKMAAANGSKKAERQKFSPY

DNM2 (human) = target: T2, DNM2 (human) (UniProt P50570)
T2 sequence: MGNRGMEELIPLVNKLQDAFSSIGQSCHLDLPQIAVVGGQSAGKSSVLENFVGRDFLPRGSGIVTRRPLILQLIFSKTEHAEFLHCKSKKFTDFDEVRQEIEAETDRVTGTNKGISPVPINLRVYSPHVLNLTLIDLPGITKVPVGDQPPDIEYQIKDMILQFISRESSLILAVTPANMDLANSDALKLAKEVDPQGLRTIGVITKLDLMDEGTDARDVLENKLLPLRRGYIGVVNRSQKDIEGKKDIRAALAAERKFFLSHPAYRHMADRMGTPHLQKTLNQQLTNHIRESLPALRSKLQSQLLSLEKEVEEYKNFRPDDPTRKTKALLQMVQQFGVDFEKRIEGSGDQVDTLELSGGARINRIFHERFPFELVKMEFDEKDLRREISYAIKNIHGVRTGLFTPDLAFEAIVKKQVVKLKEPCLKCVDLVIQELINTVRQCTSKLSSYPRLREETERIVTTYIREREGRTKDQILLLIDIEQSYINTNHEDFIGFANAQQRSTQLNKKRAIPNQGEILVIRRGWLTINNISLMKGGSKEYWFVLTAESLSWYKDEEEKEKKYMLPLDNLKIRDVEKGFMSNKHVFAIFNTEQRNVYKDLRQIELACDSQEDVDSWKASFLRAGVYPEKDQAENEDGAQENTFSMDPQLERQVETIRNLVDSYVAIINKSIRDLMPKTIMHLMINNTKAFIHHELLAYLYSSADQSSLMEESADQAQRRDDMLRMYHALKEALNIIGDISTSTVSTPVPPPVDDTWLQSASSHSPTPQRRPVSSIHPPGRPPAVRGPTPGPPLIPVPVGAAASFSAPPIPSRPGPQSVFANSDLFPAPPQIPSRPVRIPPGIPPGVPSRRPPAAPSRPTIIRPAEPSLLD

VASP (human) = VASP (human) (UniProt P50552)
SAMHD1 (human) = SAMHD1 (human) (UniProt Q9Y3Z3)
PCBP4 (human) = PCBP4 (human) (UniProt P57723)
PPP1R13L (human) = target: T3, PPP1R13L (human) (UniProt Q8WUF5)
T3 sequence: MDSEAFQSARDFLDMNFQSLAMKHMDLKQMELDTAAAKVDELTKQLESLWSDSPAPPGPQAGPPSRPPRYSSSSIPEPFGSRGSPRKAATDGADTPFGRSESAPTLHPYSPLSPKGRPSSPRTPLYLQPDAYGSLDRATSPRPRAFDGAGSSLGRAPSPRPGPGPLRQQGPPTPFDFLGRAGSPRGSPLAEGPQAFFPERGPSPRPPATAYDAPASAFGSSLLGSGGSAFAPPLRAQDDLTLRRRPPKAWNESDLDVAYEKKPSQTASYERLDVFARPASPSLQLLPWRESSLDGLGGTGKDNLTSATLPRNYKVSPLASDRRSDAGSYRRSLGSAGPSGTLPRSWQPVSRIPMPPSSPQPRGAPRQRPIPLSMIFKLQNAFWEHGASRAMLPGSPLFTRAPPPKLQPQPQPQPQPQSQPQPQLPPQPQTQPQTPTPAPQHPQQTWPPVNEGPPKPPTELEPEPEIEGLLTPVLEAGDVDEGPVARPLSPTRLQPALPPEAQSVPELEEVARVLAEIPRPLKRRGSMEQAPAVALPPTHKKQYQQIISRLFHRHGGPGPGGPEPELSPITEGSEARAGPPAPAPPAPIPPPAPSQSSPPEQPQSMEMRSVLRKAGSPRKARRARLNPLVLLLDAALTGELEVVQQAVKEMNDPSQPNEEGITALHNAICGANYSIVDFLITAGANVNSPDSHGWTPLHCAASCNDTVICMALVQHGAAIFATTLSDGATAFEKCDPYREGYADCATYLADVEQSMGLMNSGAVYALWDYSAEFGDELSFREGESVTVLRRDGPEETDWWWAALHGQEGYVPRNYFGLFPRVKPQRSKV

- binding (FUBP1 (human)): binds
- binding (SORD (human)): binds
- binding (DNM2 (human)): binds
- binding (VASP (human)): binds
- binding (SAMHD1 (human)): binds
- binding (PCBP4 (human)): binds
- binding (PPP1R13L (human)): binds
Substance: linear ubiquitin chain assembly complex (LUBAC), purified as HIS-tagged HOIP with the subunit HOIL-1, biotin-labelled (from UniProt Q96EP0 1-1072; Q9BYM8 1-510)

Source: paper PMC8274477
